PMC8591228
No constants are given. Whether binding was seen depends on the method and setting. In cells and extracts the contact can be indirect. Some entries that bind do so weakly or less than the wild type. For some assays here: Where a sequence is shown, tags or fusion partners need not be part of it.

The chains behind the UniProt entries cited, without tags or fusion partners.
UniProt O75643: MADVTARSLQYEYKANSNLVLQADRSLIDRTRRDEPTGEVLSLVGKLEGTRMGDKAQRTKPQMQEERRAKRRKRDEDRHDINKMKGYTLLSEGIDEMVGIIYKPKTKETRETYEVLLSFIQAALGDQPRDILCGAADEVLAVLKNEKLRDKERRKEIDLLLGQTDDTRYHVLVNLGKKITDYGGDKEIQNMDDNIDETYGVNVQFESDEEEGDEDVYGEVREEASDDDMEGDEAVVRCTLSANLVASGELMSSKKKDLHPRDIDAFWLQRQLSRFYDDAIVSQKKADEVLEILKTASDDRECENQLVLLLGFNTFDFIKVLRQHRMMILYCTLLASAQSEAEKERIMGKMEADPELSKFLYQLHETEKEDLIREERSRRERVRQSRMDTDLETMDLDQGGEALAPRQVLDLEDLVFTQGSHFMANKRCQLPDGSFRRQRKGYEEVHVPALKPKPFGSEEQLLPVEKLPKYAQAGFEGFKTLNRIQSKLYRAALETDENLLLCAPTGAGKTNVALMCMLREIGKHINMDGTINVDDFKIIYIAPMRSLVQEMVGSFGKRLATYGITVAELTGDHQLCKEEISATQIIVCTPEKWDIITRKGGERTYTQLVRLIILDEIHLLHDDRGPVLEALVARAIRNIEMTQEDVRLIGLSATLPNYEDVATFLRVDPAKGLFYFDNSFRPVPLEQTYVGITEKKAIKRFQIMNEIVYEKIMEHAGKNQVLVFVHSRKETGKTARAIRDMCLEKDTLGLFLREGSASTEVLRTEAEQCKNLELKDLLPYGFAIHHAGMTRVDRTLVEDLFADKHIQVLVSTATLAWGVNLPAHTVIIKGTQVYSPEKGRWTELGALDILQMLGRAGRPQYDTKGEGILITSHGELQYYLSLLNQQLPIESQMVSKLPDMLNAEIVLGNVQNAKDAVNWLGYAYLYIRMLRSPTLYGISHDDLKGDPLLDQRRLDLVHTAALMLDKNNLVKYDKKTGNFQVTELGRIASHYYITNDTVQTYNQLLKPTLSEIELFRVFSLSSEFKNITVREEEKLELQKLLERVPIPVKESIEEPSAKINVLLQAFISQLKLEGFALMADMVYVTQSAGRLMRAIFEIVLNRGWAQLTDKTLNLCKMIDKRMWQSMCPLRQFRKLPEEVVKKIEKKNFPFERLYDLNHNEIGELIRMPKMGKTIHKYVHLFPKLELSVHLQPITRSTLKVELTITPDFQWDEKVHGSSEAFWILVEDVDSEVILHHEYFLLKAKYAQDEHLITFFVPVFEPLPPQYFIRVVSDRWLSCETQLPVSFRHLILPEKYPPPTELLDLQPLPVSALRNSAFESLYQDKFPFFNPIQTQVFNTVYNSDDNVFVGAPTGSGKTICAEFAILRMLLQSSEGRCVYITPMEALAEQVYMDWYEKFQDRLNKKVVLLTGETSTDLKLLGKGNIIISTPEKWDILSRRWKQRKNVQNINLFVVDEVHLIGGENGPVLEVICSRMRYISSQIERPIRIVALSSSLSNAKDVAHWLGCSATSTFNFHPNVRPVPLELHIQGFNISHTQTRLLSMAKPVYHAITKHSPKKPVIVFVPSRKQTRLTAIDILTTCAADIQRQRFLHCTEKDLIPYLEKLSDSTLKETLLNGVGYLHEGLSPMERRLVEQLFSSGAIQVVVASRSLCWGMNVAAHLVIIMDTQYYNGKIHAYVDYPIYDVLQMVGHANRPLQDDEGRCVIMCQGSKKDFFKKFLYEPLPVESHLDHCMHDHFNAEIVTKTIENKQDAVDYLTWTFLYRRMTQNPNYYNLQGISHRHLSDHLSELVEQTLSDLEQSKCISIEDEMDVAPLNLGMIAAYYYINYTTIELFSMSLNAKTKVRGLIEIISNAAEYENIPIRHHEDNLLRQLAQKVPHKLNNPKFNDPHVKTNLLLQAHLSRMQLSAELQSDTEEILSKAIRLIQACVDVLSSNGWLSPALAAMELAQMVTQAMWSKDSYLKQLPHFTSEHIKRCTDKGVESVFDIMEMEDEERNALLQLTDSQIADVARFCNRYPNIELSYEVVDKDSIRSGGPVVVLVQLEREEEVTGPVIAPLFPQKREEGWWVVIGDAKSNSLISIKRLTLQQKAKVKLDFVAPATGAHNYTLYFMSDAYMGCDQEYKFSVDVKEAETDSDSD

Tests used:
[1] = molecular target: T1, HA-METTL7A (human) (UniProt Q9H8H3); assay: co-IP; DPSC lysates (IP lysis buffer) incubated with a specific antibody for 4 h, then protein A/G Sepharose or HA tag beads overnight at 4°C, washed three times with PBS, western blot; DPSCs with Consh or METTL7Ash, Vector or HA-METTL7A
T1 sequence: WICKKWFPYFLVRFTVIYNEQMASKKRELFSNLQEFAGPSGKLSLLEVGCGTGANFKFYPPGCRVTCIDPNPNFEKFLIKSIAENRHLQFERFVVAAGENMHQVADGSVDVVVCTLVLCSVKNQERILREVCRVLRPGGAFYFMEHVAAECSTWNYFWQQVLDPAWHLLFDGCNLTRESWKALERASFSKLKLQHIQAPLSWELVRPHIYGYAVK

[2] = molecular target: T2, Methyltransferase like 7A (METTL7A), endogenous in DPSCs (human (endogenous in DPSCs)) (UniProt Q9H8H3); assay: as above
T2 sequence: T1 sequence

SNRNP200 (from UniProt O75643 1-2136) was tested, and the binding [1] was “binds” and the binding [2] was “binds”.
